This is an account of results in the supplement of paper PMC6411743.

By UniProt entry, the sequences of proteins in these tests, tags left out. Where a name states a change or a piece, a line headed by the entry shows the natural chain unless it says otherwise.
UniProt Q96SB8: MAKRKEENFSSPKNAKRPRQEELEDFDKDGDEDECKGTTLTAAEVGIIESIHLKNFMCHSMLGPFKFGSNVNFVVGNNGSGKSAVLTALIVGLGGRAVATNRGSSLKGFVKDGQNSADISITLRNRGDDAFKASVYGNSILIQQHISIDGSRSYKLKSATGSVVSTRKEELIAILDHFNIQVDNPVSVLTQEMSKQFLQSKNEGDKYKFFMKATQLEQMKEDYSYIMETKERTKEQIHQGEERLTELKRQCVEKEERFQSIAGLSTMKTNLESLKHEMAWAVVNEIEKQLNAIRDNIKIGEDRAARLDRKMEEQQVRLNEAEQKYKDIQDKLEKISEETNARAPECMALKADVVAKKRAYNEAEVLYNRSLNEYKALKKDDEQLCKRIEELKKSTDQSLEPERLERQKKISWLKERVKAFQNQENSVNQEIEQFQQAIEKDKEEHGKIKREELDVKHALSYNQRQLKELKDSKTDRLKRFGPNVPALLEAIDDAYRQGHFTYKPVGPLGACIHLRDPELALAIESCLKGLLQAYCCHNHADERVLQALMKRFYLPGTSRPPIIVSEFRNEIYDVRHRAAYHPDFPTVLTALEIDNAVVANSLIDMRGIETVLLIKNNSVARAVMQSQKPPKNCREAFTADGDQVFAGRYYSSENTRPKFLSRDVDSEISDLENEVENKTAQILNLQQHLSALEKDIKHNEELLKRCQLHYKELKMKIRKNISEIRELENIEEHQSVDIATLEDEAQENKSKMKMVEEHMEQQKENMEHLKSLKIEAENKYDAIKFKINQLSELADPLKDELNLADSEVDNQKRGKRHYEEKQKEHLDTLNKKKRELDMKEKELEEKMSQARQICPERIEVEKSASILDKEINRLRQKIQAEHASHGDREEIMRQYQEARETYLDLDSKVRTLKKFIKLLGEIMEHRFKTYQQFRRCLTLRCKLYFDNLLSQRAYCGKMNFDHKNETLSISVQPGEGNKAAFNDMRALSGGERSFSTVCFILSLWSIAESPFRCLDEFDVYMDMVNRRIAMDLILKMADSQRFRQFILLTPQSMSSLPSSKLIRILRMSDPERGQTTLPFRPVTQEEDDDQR
UniProt Q96QU8: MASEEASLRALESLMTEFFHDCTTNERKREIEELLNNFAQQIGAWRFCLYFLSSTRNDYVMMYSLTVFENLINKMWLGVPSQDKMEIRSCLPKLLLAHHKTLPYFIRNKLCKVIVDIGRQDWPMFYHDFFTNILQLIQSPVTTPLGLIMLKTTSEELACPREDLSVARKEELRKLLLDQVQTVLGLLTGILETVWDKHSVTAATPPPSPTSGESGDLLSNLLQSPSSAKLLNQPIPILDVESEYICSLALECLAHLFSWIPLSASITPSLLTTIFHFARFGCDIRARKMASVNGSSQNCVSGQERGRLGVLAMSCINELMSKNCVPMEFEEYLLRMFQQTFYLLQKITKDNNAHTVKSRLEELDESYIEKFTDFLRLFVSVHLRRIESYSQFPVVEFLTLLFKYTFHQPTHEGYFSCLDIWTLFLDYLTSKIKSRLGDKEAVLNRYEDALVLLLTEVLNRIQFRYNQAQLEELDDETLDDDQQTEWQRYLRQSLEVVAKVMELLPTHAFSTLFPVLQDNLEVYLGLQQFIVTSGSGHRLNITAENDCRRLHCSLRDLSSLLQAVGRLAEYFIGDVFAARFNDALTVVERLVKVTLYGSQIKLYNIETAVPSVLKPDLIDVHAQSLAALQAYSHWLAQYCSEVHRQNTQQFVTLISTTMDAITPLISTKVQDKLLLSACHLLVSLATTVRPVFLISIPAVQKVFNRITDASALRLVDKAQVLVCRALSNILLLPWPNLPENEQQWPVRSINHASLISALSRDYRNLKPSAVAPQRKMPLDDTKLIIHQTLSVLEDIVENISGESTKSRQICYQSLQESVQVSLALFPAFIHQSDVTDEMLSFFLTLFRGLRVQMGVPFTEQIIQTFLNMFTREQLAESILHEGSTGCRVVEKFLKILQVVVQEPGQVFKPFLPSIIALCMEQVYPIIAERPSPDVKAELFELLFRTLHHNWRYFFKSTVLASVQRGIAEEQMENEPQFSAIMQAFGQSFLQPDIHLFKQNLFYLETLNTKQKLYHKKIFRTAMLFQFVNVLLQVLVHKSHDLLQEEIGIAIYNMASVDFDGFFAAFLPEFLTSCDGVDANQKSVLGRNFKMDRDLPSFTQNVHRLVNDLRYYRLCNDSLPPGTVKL
UniProt Q9BYV8: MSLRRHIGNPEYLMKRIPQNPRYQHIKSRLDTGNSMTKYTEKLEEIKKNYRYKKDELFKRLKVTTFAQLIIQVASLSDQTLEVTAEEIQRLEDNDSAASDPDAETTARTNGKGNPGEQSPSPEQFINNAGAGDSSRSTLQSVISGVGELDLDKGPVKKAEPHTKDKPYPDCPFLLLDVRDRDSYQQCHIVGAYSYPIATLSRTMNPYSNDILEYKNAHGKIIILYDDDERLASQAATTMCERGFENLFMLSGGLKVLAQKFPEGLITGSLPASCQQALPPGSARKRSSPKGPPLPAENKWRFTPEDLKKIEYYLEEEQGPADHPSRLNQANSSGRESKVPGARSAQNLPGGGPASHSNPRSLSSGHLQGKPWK
UniProt Q96KP4: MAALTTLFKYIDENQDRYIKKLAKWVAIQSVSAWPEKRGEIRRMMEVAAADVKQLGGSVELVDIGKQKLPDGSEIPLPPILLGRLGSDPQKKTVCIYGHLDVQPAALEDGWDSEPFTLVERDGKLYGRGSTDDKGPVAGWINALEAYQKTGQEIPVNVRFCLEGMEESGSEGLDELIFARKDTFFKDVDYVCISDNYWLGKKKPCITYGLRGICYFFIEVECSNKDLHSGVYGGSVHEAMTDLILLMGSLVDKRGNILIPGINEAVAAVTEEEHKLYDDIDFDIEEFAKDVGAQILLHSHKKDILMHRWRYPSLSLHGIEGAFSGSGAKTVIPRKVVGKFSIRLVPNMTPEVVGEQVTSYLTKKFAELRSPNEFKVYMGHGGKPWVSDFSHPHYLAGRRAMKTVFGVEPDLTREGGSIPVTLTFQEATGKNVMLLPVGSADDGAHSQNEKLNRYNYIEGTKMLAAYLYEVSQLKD
UniProt Q96MW5: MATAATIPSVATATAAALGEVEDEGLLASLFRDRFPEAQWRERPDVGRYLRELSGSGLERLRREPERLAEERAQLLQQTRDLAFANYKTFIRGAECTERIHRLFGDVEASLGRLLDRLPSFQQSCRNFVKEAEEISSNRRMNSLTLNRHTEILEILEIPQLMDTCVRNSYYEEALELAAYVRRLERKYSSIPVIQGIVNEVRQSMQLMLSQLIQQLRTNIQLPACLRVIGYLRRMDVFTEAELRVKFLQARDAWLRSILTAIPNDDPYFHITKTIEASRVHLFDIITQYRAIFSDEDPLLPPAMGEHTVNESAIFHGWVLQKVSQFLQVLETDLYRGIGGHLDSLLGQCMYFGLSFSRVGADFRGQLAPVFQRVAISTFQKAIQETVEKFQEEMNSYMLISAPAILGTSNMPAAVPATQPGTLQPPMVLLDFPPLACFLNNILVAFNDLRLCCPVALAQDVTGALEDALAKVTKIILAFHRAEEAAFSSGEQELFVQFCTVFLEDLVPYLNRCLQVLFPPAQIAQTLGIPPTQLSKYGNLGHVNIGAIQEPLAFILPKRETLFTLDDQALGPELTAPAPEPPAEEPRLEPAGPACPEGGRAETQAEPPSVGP

± gives the standard deviation of the averaged measurements. Some of the results follow.

Compound in this assay: Nc1nc2c(ncn2[C@@H]2O[C@H](COP(=O)(O)OP(=O)(O)OP(=O)(O)O)[C@@H](O)[C@H]2O)c(=O)[nH]1 [guanosine triphosphate]
Kind of assay: NP40-soluble protein abundance relative to vehicle (solubility fold change) (ratio); higher = more soluble protein in presence of GTP. As to the method: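 Solubility proteome profiling in Jurkat crude lysate. Lysate was treated with Mg-GTP (0.1-10 mM) for 10 min at room temperature and 3 min at 37 °C, then solubilised with 0.8% NP40 and benzonase, followed by ultracentrifugation. Proteins were quantified by TMT10 LC-MS/MS; the value is the NP40-soluble abundance relative to the NP40-processed vehicle, from 3 independent experiments.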

Consider UniProt Q96SB8 and related entries, for which the NP40-soluble protein abundance (concentration: 0.1mM) was 0.992 ± 0.021; the NP40-soluble protein abundance (concentration: 0.5mM) worked out at 1.02 ± 0.035; the NP40-soluble protein abundance (concentration: 1mM) stood at 0.985 ± 0.031; the NP40-soluble protein abundance (concentration: 2mM) was determined as 1 ± 0.026; the NP40-soluble protein abundance (concentration: 4mM) is 0.998 ± 0.033; the NP40-soluble protein abundance (concentration: 6mM) worked out at 1.02 ± 0.021. The NP40-soluble protein abundance runs as follows: (concentration: 8mM) 1.04 ± 0.063; (concentration: 10mM) 1.04 ± 0.062.
As to UniProt Q96QU8 and related entries, the NP40-soluble protein abundance runs as follows: (concentration: 0.1mM) 1.07 ± 0.027; (concentration: 0.5mM) 1.08 ± 0.075; (concentration: 1mM) 0.941 ± 0.084; (concentration: 2mM) 0.956 ± 0.036; (concentration: 4mM) 0.987 ± 0.052; (concentration: 6mM) 0.938 ± 0.077. For the same target, the NP40-soluble protein abundance runs as follows: (concentration: 8mM) 0.921 ± 0.02; (concentration: 10mM) 0.897 ± 0.07.
For the target UniProt Q9BYV8, the NP40-soluble protein abundance (concentration: 0.1mM) turned out to be 0.947 ± 0.061; the NP40-soluble protein abundance (concentration: 0.5mM) was found to be 0.894 ± 0.11; the NP40-soluble protein abundance (concentration: 1mM) stood at 0.975 ± 0.069; the NP40-soluble protein abundance (concentration: 2mM) is 0.957 ± 0.11; the NP40-soluble protein abundance (concentration: 4mM) worked out at 0.95 ± 0.14; the NP40-soluble protein abundance (concentration: 6mM) is 0.952 ± 0.14. In addition, the NP40-soluble protein abundance runs as follows: (concentration: 8mM) 0.93 ± 0.11; (concentration: 10mM) 0.975 ± 0.068.
Regarding CNDP2 (UniProt Q96KP4), the NP40-soluble protein abundance came to 0.976 ± 0.025 (concentration: 0.1mM); 0.985 ± 0.0099 (concentration: 0.5mM); 0.935 ± 0.04 (concentration: 1mM); 0.907 ± 0.039 (concentration: 2mM); 0.886 ± 0.057 (concentration: 4mM); 0.885 ± 0.035 (concentration: 6mM). Moreover, the NP40-soluble protein abundance (concentration: 8mM) stood at 0.861 ± 0.044 and the NP40-soluble protein abundance (concentration: 10mM) is 0.853 ± 0.071.
Regarding UniProt Q96MW5 and related entries, the NP40-soluble protein abundance stood at 1.01 ± 0.067 (concentration: 0.1mM); 1.08 ± 0.083 (concentration: 0.5mM); 1.02 ± 0.047 (concentration: 1mM); 1.08 ± 0.037 (concentration: 2mM); 1.09 ± 0.028 (concentration: 4mM); 1.07 ± 0.08 (concentration: 6mM). Further, the NP40-soluble protein abundance (concentration: 8mM) was 1.07 ± 0.074 and the NP40-soluble protein abundance (concentration: 10mM) came to 1.03 ± 0.099.
